Test results: patent publication US5863540A, “Adhesion molecule” (Duke University, priority 1993, dated 1999)
Not every detail of the peptide structures is certain; ends, links or a residue may be inferred. Where a SMILES comes first, the peptide text is derived from it.

System: T cell receptor-mediated T cell activation
Experiment: T cell receptor-mediated T cell activation (anti-CD3ε mab Leu 4) of PBMC, 3H-thymidine, CD44 peptides
Assay type: cell-based, human
Protocol: Synthetic peptides were prepared by FMoc or TBoc chemistry, purified usin
HPLC, and resuspended in RPMI media prior to addition to 4 day in vitro
cultures. Following 4 days in culture, 3Hthymidine was added, and
following an incubation of 4 hours, the cultures were harvested using an
automated multiwell harvester using standard techiques.

**Q.** Which results are given for CC[C@H](C)[C@H](NC(=O)[C@H](Cc1c[nH]c2ccccc12)NC(=O)[C@@H]1CCCN1C(=O)[C@H](CO)NC(=O)[C@@H](N)CC(=O)O)C(=O)N[C@H](C(=O)N[C@@H](CC(=O)O)C(=O)N[C@@H](CO)C(=O)N[C@H](C(=O)N[C@@H](CC(=O)O)C(=O)N[C@@H](CCCNC(=N)N)C(=O)N[C@H](C(=O)N1CCC[C@H]1C(=O)N[C@@H](C)C(=O)N[C@H](C(=O)N[C@@H](CCCNC(=N)N)C(=O)N[C@@H](CC(=O)O)C(=O)N[C@@H](CCC(N)=O)C(=O)N[C@@H](CC(=O)O)C(=O)N[C@H](C(=O)O)[C@@H](C)O)[C@@H](C)O)[C@@H](C)CC)[C@@H](C)O)[C@@H](C)O [CD44-6A] (H-DSPWITDSTDRIPATRDQDT-OH)?
**A.** effect on T cell activation (in words) (1 mg/ml peptide, anti-CD3 triggered PBMC cultures): inhibition of T cell activation; % Inhibition (peptide 1 mg/ml, Leu 4 1:10,000, 4 day culture): 67%; Δ CPM 3H-Thymidine/106 Cells in Culture (peptide 1 mg/ml, Leu 4 1:10,000, 4 day culture, control 170,523): 56,858 Δ CPM 3H-Thymidine/106 Cells
